Source: patent US20220074941A1, “HSP90 COMBINATION THERAPY” (Sloan-Kettering Institute for Cancer Research, priority 2011, published 2022)

B1: TBC1D15 (protein, UniProt Q8TC07 2-691, looked up)
TBC1 domain family member 15: AAAGVVSGKIIYEQEGVYIHSSCGKTNDQDGLISGILRVLEKDAEVIVDWRPLDDALDSSSILYARKDSSSVVEWTQAPKERGHRGSEHLNSYEAEWDMVNTVSFKRKPHTNGDAPSHRNGKSKWSFLFSLTDLKSIKQNKEGMGWSYLVFCLKDDVVLPALHFHQGDSKLLIESLEKYVVLCESPQDKRTLLVNCQNKSLSQSFENLLDEPAYGLIQAGLLDRRKLLWAIHHWKKIKKDPYTATMIGFSKVTNYIFDSLRGSDPSTHQRPPSEMADFLSDAIPGLKINQQEEPGFEVITRIDLGERPVVQRREPVSLEEWTKNIDSEGRILNVDNMKQMIFRGGLSHALRKQAWKFLLGYFPWDSTKEERTQLQKQKTDEYFRMKLQWKSISQEQEKRNSRLRDYRSLIEKDVNRTDRTNKFYEGQDNPGLILLHDILMTYCMYDFDLGYVQGMSDLLSPLLYVMENEVDAFWCFASYMDQMHQNFEEQMQGMKTQLIQLSTLLRLLDSGFCSYLESQDSGYLYFCFRWLLIRFKREFSFLDILRLWEVMWTELPCTNFHLLLCCAILESEKQQIMEKHYGFNEILKHINELSMKIDVEDILCKAEAISLQMVKCKELPQAVCEILGLQGSEVTTPDSDVGEDENVVMTPCPTSAFQSNALPTLSASGARNDSPTQIPVSSDVCRLTPA
B2: GAPVD1 (protein, UniProt Q14C86 1-1478, looked up)
GTPase-activating protein and …: MVKLDIHTLAHHLKQERLYVNSEKQLIQRLNADVLKTAEKLYRTAWIAKQQRINLDRLIITSAEASPAECCQHAKILEDTQFVDGYKQLGFQETAYGEFLSRLRENPRLIASSLVAGEKLNQENTQSVIYTVFTSLYGNCIMQEDESYLLQVLRYLIEFELKESDNPRRLLRRGTCAFSILFKLFSEGLFSAKLFLTATLHEPIMQLLVEDEDHLETDPNKLIERFSPSQQEKLFGEKGSDRFRQKVQEMVESNEAKLVALVNKFIGYLKQNTYCFPHSLRWIVSQMYKTLSCVDRLEVGEVRAMCTDLLLACFICPAVVNPEQYGIISDAPINEVARFNLMQVGRLLQQLAMTGSEEGDPRTKSSLGKFDKSCVAAFLDVVIGGRAVETPPLSSVNLLEGLSRTVVYITYSQLITLVNFMKSVMSGDQLREDRMALDNLLANLPPAKPGKSSSLEMTPYNTPQLSPATTPANKKNRLPIATRSRSRTNMLMDLHMDHEGSSQETIQEVQPEEVLVISLGTGPQLTPGMMSENEVLNMQLSDGGQGDVPVDENKLHGKPDKTLRFSLCSDNLEGISEGPSNRSNSVSSLDLEGESVSELGAGPSGSNGVEALQLLEHEQATTQDNLDDKLRKFEIRDMMGLTDDRDISETVSETWSTDVLGSDFDPNIDEDRLQEIAGAAAENMLGSLLCLPGSGSVLLDPCTGSTISETTSEAWSVEVLPSDSEAPDLKQEERLQELESCSGLGSTSDDTDVREVSSRPSTPGLSVVSGISATSEDIPNKIEDLRSECSSDFGGKDSVTSPDMDEITHGAHQLTSPPSQSESLLAMFDPLSSHEGASAVVRPKVHYARPSHPPPDPPILEGAVGGNEARLPNFGSHVLTPAEMEAFKQRHSYPERLVRSRSSDIVSSVRRPMSDPSWNRRPGNEERELPPAAAIGATSLVAAPHSSSSSPSKDSSRGETEERKDSDDEKSDRNRPWWRKRFVSAMPKAPIPFRKKEKQEKDKDDLGPDRFSTLTDDPSPRLSAQAQVAEDILDKYRNAIKRTSPSDGAMANYESTGDNHDRDLSSKLLYHSDKEVMGDGESAHDSPRDEALQNISADDLPDSASQAAHPQDSAFSYRDAKKKLRLALCSADSVAFPVLTHSTRNGLPDHTDPEDNEIVCFLKVQIAEAINLQDKNLMAQLQETMRCVCRFDNRTCRKLLASIAEDYRKRAPYIAYLTRCRQGLQTTQAHLERLLQRVLRDKEVANRYFTTVCVRLLLESKEKKIREFIQDFQKLTAADDKTAQVEDFLQFLYGAMAQDVIWQNASEEQLQDAQLAIERSVMNRIFKLAFYPNQDGDILRDQVLHEHIQRLSKVVTANHRALQIPEVYLREAPWPSAQSEIRTISAYKTPRDKVQCILRMCSTIMNLLSLANEDSVPGADDFVPVLVFVLIKANPPCLLSTVQYISSFYASCLSGEESYWWMQFTAAVEFIKTIDDRK
B3: STAT5A (protein)
chain: MAGWIQAQQLQGDALRQMQVLYGQHFPIEVRHYLAQWIESQPWDAIDLDNPQDRAQATQLLEGLVQELQKKAEHQVGEDGFLLKIKLGHYATQLQKTYDRCPLELVRCIRHILYNEQRLVREANNCSSPAGILVDAMSQKHLQINQTFEELRLVTQDTENELKKLQQTQEYFIIQYQESLRIQAQFAQLAQLSPQERLSRETALQQKQVSLEAWLQREAQTLQQYRVELAEKHQKTLQLLRKQQTIILDDELIQWKRRQQLAGNGGPPEGSLDVLQSWCEKLAEIIWQNRQQIRRAEHLCQQLPIPGPVEEMLAEVNATITDIISALVTSTFIIEKQPPQVLKTQTKFAATVRLLVGGKLNVHMNPPQVKATIISEQQAKSLLKNENTRNECSGEILNNCCVMEYHQATGTLSAHFRNMSLKRIKRADRRGAESVTEEKFTVLFESQFSVGSNELVFQVKTLSLPVVVIVHGSQDHNATATVLWDNAFAEPGRVPFAVPDKVLWPQLCEALNMKFKAEVQSNRGLTKENLVFLAQKLFNNSSSHLEDYSGLSVSWSQFNRENLPGWNYTFWQWFDGVMEVLKKHHKPHWNDGAILGFVNKQQAHDLLINKPDGTFLLRFSDSEIGGITIAWKFDSPERNLWNLKPFTTRDFSIRSLADRLGDLSYLIYVFPDRPKDEVFSKYYTPVLAKAVDGYVKPQIKQVVPEFVNASADAGGSSATYMDQAPSPAVCPQAPYNMYPQNPDHVLDQDGEFDLDETMDVARHVEELLRRPMDSLDSRLSPPAGLFTSARGSLS
B4: RAB3GAP1 (protein, UniProt Q15042 1-981, looked up)
Rab3 GTPase-activating …: MAADSEPESEVFEITDFTTASEWERFISKVEEVLNDWKLIGNSLGKPLEKGIFTSGTWEEKSDEISFADFKFSVTHHYLVQESTDKEGKDELLEDVVPQSMQDLLGMNNDFPPRAHCLVRWYGLREFVVIAPAAHSDAVLSESKCNLLLSSVSIALGNTGCQVPLFVQIHHKWRRMYVGECQGPGVRTDFEMVHLRKVPNQYTHLSGLLDIFKSKIGCPLTPLPPVSIAIRFTYVLQDWQQYFWPQQPPDIDALVGGEVGGLEFGKLPFGACEDPISELHLATTWPHLTEGIIVDNDVYSDLDPIQAPHWSVRVRKAENPQCLLGDFVTEFFKICRRKESTDEILGRSAFEEEGKETADITHALSKLTEPASVPIHKLSVSNMVHTAKKKIRKHRGVEESPLNNDVLNTILLFLFPDAVSEKPLDGTTSTDNNNPPSESEDYNLYNQFKSAPSDSLTYKLALCLCMINFYHGGLKGVAHLWQEFVLEMRFRWENNFLIPGLASGPPDLRCCLLHQKLQMLNCCIERKKARDEGKKTSASDVTNIYPGDAGKAGDQLVPDNLKETDKEKGEVGKSWDSWSDSEEEFFECLSDTEELKGNGQESGKKGGPKEMANLRPEGRLYQHGKLTLLHNGEPLYIPVTQEPAPMTEDLLEEQSEVLAKLGTSAEGAHLRARMQSACLLSDMESFKAANPGCSLEDFVRWYSPRDYIEEEVIDEKGNVVLKGELSARMKIPSNMWVEAWETAKPIPARRQRRLFDDTREAEKVLHYLAIQKPADLARHLLPCVIHAAVLKVKEEESLENISSVKKIIKQIISHSSKVLHFPNPEDKKLEEIIHQITNVEALIARARSLKAKFGTEKCEQEEEKEDLERFVSCLLEQPEVLVTGAGRGHAGRIIHKLFVNAQRAAAMTPPEEELKRMGSPEERRQNSVSDFPPPAGREFILRTTVPRPAPYSKALPQRMYSVLTKEDFRLAGAFSSDTSFF
B5: RAB11B (protein, UniProt Q15907 2-215, looked up)
Ras-related protein Rab-11B: GTRDDEYDYLFKVVLIGDSGVGKSNLLSRFTRNEFNLESKSTIGVEFATRSIQVDGKTIKAQIWDTAGQERYRAITSAYYRGAVGALLVYDIAKHLTYENVERWLKELRDHADSNIVIMLVGNKSDLRHLRAVPTDEARAFAEKNNLSFIETSALDSTNVEEAFKNILTEIYRIVSQKQIADRAAHDESPGNNVVDISVPPTTDGQKPNKLQCC

What was measured:
[1] = tested on: Hsp90 complexes in K562 cell extract; assay: Nano-LC-MS/MS of PU-beads pull-downs; assay type: binding; details: protein identified in PU-beads pull-down of K562 extract, QSTAR-Elite QTof MS
Outline: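 Lysates pre-cleared overnight at 4 °C with control beads, then pulled down with PU-beads or control beads; eluted proteins (2% SDS boil) gel-separated and analysed by nano LC-MS/MS on a QTof. Mascot identification (p<0.05), spectral counts and sequence coverage evaluated in Scaffold.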

[2] = tested on: Hsp90 complexes in Mia-PaCa-2 cell extract; assay: Nano-LC-MS/MS of PU-beads pull-downs; assay type: binding, human; details: protein identified in PU-beads pull-down of Mia-Paca 2 extract; QSTAR-Elite QTof MS
Outline: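 Lysates pre-cleared overnight at 4 °C with control beads underwent PU-bead pull-down; bound proteins were SDS-eluted, gel-separated, digested and analyzed by nano-LC-MS/MS on a QTof. Identifications used significance p<0.05, 0.4 Da tolerances and one missed cleavage; unique peptide (spectral) counts and sequence coverage were reported.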

| Molecule | Number of Assigned Spectra, K562 Prep 1 [1] | Number of Assigned Spectra, K562 Prep 2 [1] | Number of Assigned Spectra, Mia-Paca 2 [2] |
| --- | --- | --- | --- |
| B1 | 6 | 4 | 4 |
| B2 | 4 | 6 | 6 |
| B3 | 48 | 25 | 0 |
| B4 | 9 | 6 | 3 |
| B5 | 6 | 1 | 0 |
